Earlier results as cited in patent US6620853B1, “Methods and compositions for prevention and treatment of restenosis with non-steroidal anti-inflammatory drugs” (Mount Sinai School of Medicine, priority 1998, dated 2003).

System: HT-29 human colon adenocarcinoma cells
Settings: cited from earlier work

COc1ccc2cc([C@H](C)C(=O)O)ccc2c1 [naproxen]
morphology of HT-29 cells: altered morphology
proliferation of HT-29 cells: reduced proliferation
